Results reported in PubChem BioAssay AID292 (DTP/NCI, 2004).
The list shows only some results of the screen, not a fair sample: it is rich in T/C values a quarter to a half above the control, in often repeated tests (any T/C) and in doses without a T/C. Further doses and runs are listed elsewhere. T/C is the treated group as % of the vehicle group. Some entries give survivors of the animals treated and no T/C: the source holds a T/C of zero for them, seemingly a mark for toxic or unscored doses. Some doses without a T/C left all or most animals alive at the check, yet need not have been tolerated: the source hardly ever lists a survival T/C far under the control, and the zero likely stands for such cases as well. Counts of survivors are from the toxicity check (mostly the fifth day) where no day follows; animals may have died later. Schedules are NCI's codes, read here as Q, the interval in days (D) or hours (H), X, the number of doses. Some doses were run more than once; the results are listed from low to high. Where survival is the endpoint, this PubChem deposit counts one and a half times the control or more as active, and values a quarter to a half above the control carry no call in these data; other NCI protocols may use other cut-offs. Some T/C values are followed by the survivors on the day toxicity was checked, most often the fifth; without a count, all were alive then.

Tested on: B6C3F1 mice, ip Sarcoma M5076, median survival T/C
Assay: NCI In Vivo Anticancer Drug Screen. Data for tumor model Sarcoma M5076 (intraperitoneal) in B6C3F1 mice
Details: T/C endpoint: median survival time, higher T/C = longer survival
Outline: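 Mice carrying the transplanted tumour received compound treatment. Survival was recorded, and each value is the treated-group measurement divided by that of the vehicle-dosed control group.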

[1] = dose: 200.0 mg/kg/injection, schedule: Q04DX004 (ip), vehicle: Klucel (hydroxypropylcellulose) (HPC)
[2] = dose: 400.0 mg/kg/injection, schedule: Q04DX004 (ip), vehicle: Klucel (hydroxypropylcellulose) (HPC)
[3] = dose: 800.0 mg/kg/injection, schedule: Q04DX004 (ip), vehicle: Klucel (hydroxypropylcellulose) (HPC)
[4] = dose: 300.0 mg/kg/injection, schedule: Q04DX004 (ip), vehicle: saline with Tween-80
[5] = dose: 200.0 mg/kg/injection, schedule: Q04DX004 (ip), vehicle: saline with Tween-80
[6] = dose: 400.0 mg/kg/injection, schedule: Q04DX004 (ip), vehicle: saline with Tween-80

Nc1nc(N)c2c(ccc3c2ccn3Cc2cccc([N+](=O)[O-])c2)n1
T/C (dose: 4.75 mg/kg/injection, schedule: Q04DX004 (ip), vehicle: saline with Tween-80): 127 % of control | T/C (dose: 9.5 mg/kg/injection, schedule: Q04DX004 (ip), vehicle: saline with Tween-80): 126 % of control | T/C (dose: 18.75 mg/kg/injection, schedule: Q04DX004 (ip), vehicle: saline with Tween-80): 137 % of control | T/C (dose: 19.0 mg/kg/injection, schedule: Q04DX004 (ip), vehicle: saline with Tween-80): 125 and 140 % of control | survivor count (dose: 37.5 mg/kg/injection, schedule: Q04DX004 (ip), vehicle: saline with Tween-80): 2 of 10 on day 14 | survivor count (dose: 75.0 mg/kg/injection, schedule: Q04DX004 (ip), vehicle: saline with Tween-80): 0 of 10 on day 14

N#CC1C(=O)NC(=S)NC1c1ccco1 (centres undefined)
survivor count [1]: 5 of 10 on day 14 | survivor count [2]: 0 of 10 on day 14 | survivor count [3]: 0 of 10 on day 14

O=NN(CCCl)C(=O)NCCCl
T/C (dose: 3.0 mg/kg/injection, schedule: Q04DX004 (ip), vehicle: saline + alcohol, evaluated on day 60): 134 % of control | T/C (dose: 3.0 mg/kg/injection, schedule: Q04DX004 (ip), vehicle: saline + alcohol, evaluated on day 75): 131 % of control | survivor count (dose: 48.0 mg/kg/injection, schedule: Q04DX004 (ip), vehicle: saline + alcohol): 5 of 10 on day 14

COc1ccc(Nc2c3sc4cc(OC)ccc4nc-3c3ccccc3c2=O)cc1
survivor count [4]: 9 of 10 on day 14 | survivor count (dose: 600.0 mg/kg/injection, schedule: Q04DX004 (ip), vehicle: saline with Tween-80): 9 of 10 on day 14

C/C=C/C(C)C1OC1(C)C(O)C1COC(=O)C(O)C(OC)C(C)C(=O)C(C)C(O)/C(C)=C/C(C)C(=O)CC(O)C(C)C1=O (centres undefined)
survivor count (dose: 40.0 micrograms/kg/injection, schedule: Q04DX004 (ip), vehicle: saline): 1 of 10 on day 14

Oc1c(Cl)cc(Cl)cc1C=NCCSc1ccc(Cl)cc1
survivor count [3]: 0 of 10 on day 14

N#CC1C(=O)NC(=S)NC1c1ccccc1 (centres undefined)
survivor count [3]: 2 of 10 on day 14

COC1C(CO)OC(n2cnc3c(=S)nc(N)[nH]c32)C1O (centres undefined)
survivor count [2]: 3 of 10 on day 9 | survivor count [3]: 2 of 10 on day 9

O=C1N[C@H]2[C@H](O)[C@H](O)[C@@H](O)[C@H](O)[C@@H]2c2cc3c(c(O)c21)OCO3
T/C (dose: 0.75 mg/kg/injection, schedule: Q01DX009 (ip), vehicle: saline + alcohol): 126 and 131 % of control | T/C (dose: 0.78 mg/kg/injection, schedule: Q01DX009 (ip), vehicle: saline + alcohol): 132 % of control [7 of 10 alive on day 14] | T/C (dose: 1.5 mg/kg/injection, schedule: Q01DX009 (ip), vehicle: saline + alcohol): 129 and 144 % of control | T/C (dose: 1.56 mg/kg/injection, schedule: Q01DX009 (ip), vehicle: saline + alcohol): 129 % of control [9 of 10 alive on day 14] | T/C (dose: 3.0 mg/kg/injection, schedule: Q04DX004 (ip), vehicle: saline + alcohol): 125 and 129 % of control | T/C (dose: 3.12 mg/kg/injection, schedule: Q01DX009 (ip), vehicle: saline + alcohol): 143 % of control [9 of 10 alive on day 14] | survivor count (dose: 6.0 mg/kg/injection, schedule: Q01DX009 (ip), vehicle: saline + alcohol): 6 of 10 on day 14 | T/C (dose: 6.0 mg/kg/injection, schedule: Q04DX004 (ip), vehicle: saline + alcohol): 132 and 136 % of control | survivor count (dose: 12.0 mg/kg/injection, schedule: Q01DX009 (ip), vehicle: saline + alcohol): 0 of 10 on day 14 and 1 of 10 on day 14 | T/C (dose: 12.0 mg/kg/injection, schedule: Q04DX004 (ip), vehicle: saline + alcohol): 140 [7 of 10 alive on day 14] and 144 % of control [8 of 10 alive on day 14] | survivor count (dose: 12.5 mg/kg/injection, schedule: Q01DX009 (ip), vehicle: saline + alcohol): 0 of 10 on day 14 | survivor count (dose: 24.0 mg/kg/injection, schedule: Q04DX004 (ip), vehicle: saline + alcohol): 0 of 10 on day 14 and 3 of 10 on day 14

Nc1ncnc2c1c1c(=O)[nH]c(=O)[nH]c1n2C1OC(CO)C(O)C1O (centres undefined)
T/C (dose: 400.0 mg/kg/injection, schedule: Q04DX004 (ip), vehicle: distilled water + Tween-80): 133 % of control | survivor count (dose: 800.0 mg/kg/injection, schedule: Q04DX004 (ip), vehicle: distilled water + Tween-80): 2 of 10 on day 14 and 4 of 10 on day 14

COc1ccccc1N1C(=O)C(=O)C(C(C)=O)C1=O (centres undefined)
survivor count (dose: 700.0 mg/kg/injection, schedule: Q04DX004 (ip), vehicle: Klucel (hydroxypropylcellulose) (HPC)): 4 of 10 on day 14

NC(=S)N/N=C/c1cc(=O)c2cc(Cl)ccc2o1
survivor count (dose: 150.0 mg/kg/injection, schedule: Q04DX004 (ip), vehicle: DMSO): 10 of 10 on day 14 | survivor count (dose: 300.0 mg/kg/injection, schedule: Q04DX004 (ip), vehicle: DMSO): 10 of 10 on day 14 | survivor count (dose: 600.0 mg/kg/injection, schedule: Q04DX004 (ip), vehicle: DMSO): 9 of 10 on day 14 | survivor count (dose: 1200.0 mg/kg/injection, schedule: Q04DX004 (ip), vehicle: DMSO): 9 of 10 on day 14

CNCCN=c1ccc2c3c1c(O)c1c(O)ccc(=O)c1c3[nH]n2CCNCCO
survivor count (dose: 6.0 mg/kg/injection, schedule: Q04DX004 (ip), vehicle: water): 8 of 10 on day 14 | survivor count (dose: 12.0 mg/kg/injection, schedule: Q04DX004 (ip), vehicle: water): 1 of 10 on day 14 | survivor count (dose: 24.0 mg/kg/injection, schedule: Q04DX004 (ip), vehicle: water): 0 of 10 on day 14 | survivor count (dose: 25.0 mg/kg/injection, schedule: Q04DX004 (ip), vehicle: water): 0 of 10 on day 14 | survivor count (dose: 50.0 mg/kg/injection, schedule: Q04DX004 (ip), vehicle: water): 0 of 10 on day 14 | survivor count (dose: 100.0 mg/kg/injection, schedule: Q04DX004 (ip), vehicle: water): 0 of 10 on day 14

Cc1cc2cc3cc(C)c(N)cc3nc2cc1N
survivor count [5]: 0 of 10 on day 14 | survivor count [6]: 0 of 10 on day 14

Clc1ccccc1C(Nc1cnccn1)Nc1cnccn1
survivor count (dose: 800.0 mg/kg/injection, schedule: Q04DX004 (ip), vehicle: saline with Tween-80): 3 of 10 on day 14

CCn1c(-c2ccc(OC(C)=O)cc2)c(C)c2cc(OC(C)=O)ccc21
survivor count [2]: 9 of 10 on day 14

Clc1ccc(OCC(Cn2ccnc2)c2ccc(Cl)cc2)cc1 (centres undefined)
survivor count (dose: 150.0 mg/kg/injection, schedule: Q04DX004 (ip), vehicle: saline with Tween-80): 8 of 10 on day 14 | survivor count [4]: 1 of 10 on day 14

CCOC(=O)Nc1cc(NC(C)/C(=N/O)c2ccccc2)c([N+](=O)[O-])c(N)n1 (centres undefined)
T/C (dose: 200.0 mg/kg/injection, schedule: Q04DX004 (ip), vehicle: Klucel (hydroxypropylcellulose) (HPC), evaluated on day 39): 143 % of control | T/C (dose: 200.0 mg/kg/injection, schedule: Q04DX004 (ip), vehicle: Klucel (hydroxypropylcellulose) (HPC), evaluated on day 60): 135 % of control | T/C [2]: 129 % of control [8 of 10 alive on day 14] | T/C (dose: 480.0 mg/kg/injection, schedule: Q04DX004 (ip), vehicle: Klucel (hydroxypropylcellulose) (HPC)): 125 % of control | survivor count [3]: 4 of 10 on day 14

COc1ccc(N2CCCSC2=S)cc1
survivor count (dose: 125.0 mg/kg/injection, schedule: Q04DX004 (ip), vehicle: saline + Tween-80 + alcohol): 10 of 10 on day 14 | survivor count (dose: 250.0 mg/kg/injection, schedule: Q04DX004 (ip), vehicle: saline + Tween-80 + alcohol): 10 of 10 on day 14 | survivor count (dose: 500.0 mg/kg/injection, schedule: Q04DX004 (ip), vehicle: saline + Tween-80 + alcohol): 2 of 10 on day 14

Cc1ccc(C(=Nc2ccccc2)N=P(c2ccccc2)(c2ccccc2)c2ccccc2)cc1
survivor count (dose: 100.0 mg/kg/injection, schedule: Q04DX004 (ip), vehicle: saline with Tween-80): 0 of 10 on day 14 | survivor count [5]: 4 of 10 on day 14 | survivor count [6]: 0 of 10 on day 14

N#CC1C(=O)NC(=O)C(C#N)C1C(Cl)(Cl)Cl (centres undefined)
survivor count [1]: 10 of 10 on day 14 | survivor count [2]: 10 of 10 on day 14 | survivor count [3]: 1 of 10 on day 14
